This passage reports T/C and survivor count results from PubChem BioAssay AID330 (DTP/NCI, 2004).

This test relates to P388 leukemia ip, CD2F1 mice, survival T/C. The test can be described thus: NCI In Vivo Anticancer Drug Screen. Data for tumor model P388 Leukemia (intraperitoneal) in CD2F1 (CDF1) mice. The note with it: T/C endpoint: median survival time, higher T/C = longer survival.
The mark [1] stands for this setting: dose: 25.0 mg/kg/injection, schedule: Q01DX009 (ip), vehicle: other.
Where [2] appears, read: dose: 400.0 mg/kg/injection, schedule: Q01DX009 (ip), vehicle: saline with Tween-80.

The list is a part of this screen's results and no random one: it gathers tests that were run many times, whatever their T/C, doses with no T/C, and many T/C values between a quarter and a half above the control. Other doses and runs of a compound stand elsewhere. T/C: endpoint of the treated group in % of that of the vehicle group. Some doses have a count of surviving animals in place of a T/C: the source files T/C as zero there, which appears to mark a toxic dose or a test without result, not a measured value. Some doses without a T/C left all or most animals alive at the check, yet need not have been tolerated: survival well below the control is almost never listed, so the zero probably covers shortened survival too. Survivors were counted at the toxicity check, usually on the fifth day, unless a day is given; later deaths do not show. Schedules are NCI's codes, read here as Q, the interval in days (D) or hours (H), X, the number of doses. Signs of the kind (2×) say how often a value occurs here. Some doses were run more than once; the results are listed from low to high. For survival time, the PubChem record calls one and a half times the control and up active, and a quarter to a half above the control has no call in these data; cut-offs in other NCI protocols can differ. Some T/C values carry the count of animals alive at the toxicity check (mostly the fifth day); where none is given, no animal had died by that day.

Take `CO[C@H]1C[C@](C)(O)Cc2cc3c(c(O)c21)C(=O)c1c(O)cc2c(c1C3=O)O[C@@H]1O[C@@]2(C)[C@H](O)[C@@H](N(C)C)[C@@H]1O`: the T/C (dose: 0.78 mg/kg/injection, schedule: Q01DX009 (ip), vehicle: other) was 147 % of control; the T/C (dose: 1.25 mg/kg/injection, schedule: Q01DX005 (ip), vehicle: clinical formulation) was 144 and 148 % of control; the T/C (dose: 1.56 mg/kg/injection, schedule: Q01DX009 (ip), vehicle: other) was 138 % of control; the T/C (dose: 1.6 mg/kg/injection, schedule: Q01DX009 (ip), vehicle: other) is 147, 163, 164, 165 % of control; the T/C (dose: 1.6 mg/kg/injection, schedule: Q04DX003 (ip), vehicle: other) is 148 % of control; the T/C (dose: 3.0 mg/kg/injection, schedule: Q01DX005 (iv), vehicle: clinical formulation) was 136 and 138 % of control. The T/C by setting is: (dose: 3.12 mg/kg/injection, schedule: Q01DX009 (ip), vehicle: other) 147, 157, 167, 169 % of control; (dose: 3.13 mg/kg/injection, schedule: Q01DX009 (ip), vehicle: other) 167, 174, 175, 177, 188, 201 % of control; (dose: 3.13 mg/kg/injection, schedule: Q04DX003 (ip), vehicle: other) 143 % of control; (dose: 4.5 mg/kg/injection, schedule: Q01DX005 (iv), vehicle: other, evaluated on day 35) 149 % of control; (dose: 4.5 mg/kg/injection, schedule: Q01DX005 (iv), vehicle: other, evaluated on day 60) 137 % of control; (dose: 4.5 mg/kg/injection, schedule: Q01DX009 (ip), vehicle: other, evaluated on day 45) 180 % of control. For the same compound, the T/C by setting is: (dose: 4.5 mg/kg/injection, schedule: Q01DX009 (ip), vehicle: other, evaluated on day 60) 162, 179, 181, 183 % of control; (dose: 5.0 mg/kg/injection, schedule: Q01DX009 (ip), vehicle: other) 148, 170, 174, 185, 186, 187, 189, 190, 192, 193, 194, 198, 201, 203 % of control; (dose: 6.25 mg/kg/injection, schedule: Q01DX009 (ip), vehicle: other) 164, 190 (2×), 194, 197, 200, 209, 210, 211 (2×), 213, 243 % of control; (dose: 6.25 mg/kg/injection, schedule: Q01DX009 (oral), vehicle: saline) 135 % of control; (dose: 6.7 mg/kg/injection, schedule: Q01DX009 (ip), vehicle: other, evaluated on day 45) 192, 209, 210, 216, 220 % of control (2×); (dose: 6.7 mg/kg/injection, schedule: Q01DX009 (ip), vehicle: other, evaluated on day 60) 196, 200, 204, 206, 216, 223 % of control. For the same compound, the T/C by setting is: (dose: 10.0 mg/kg/injection, schedule: Q01DX009 (ip), vehicle: other, evaluated on day 30) 101, 200, 207, 218, 221, 222, 224, 232, 238, 254, 259, 263, 274, 281 % of control; (dose: 10.0 mg/kg/injection, schedule: Q01DX009 (ip), vehicle: other, evaluated on day 45) 230, 240, 253, 255, 261, 269 % of control; (dose: 10.0 mg/kg/injection, schedule: Q01DX009 (ip), vehicle: other, evaluated on day 60) 225, 227, 230, 242, 247, 262 % of control; (dose: 12.5 mg/kg/injection, schedule: Q01DX009 (ip), vehicle: other) 95, 154, 174, 174 [5 of 6 alive], 222, 227, 235, 242, 250, 257, 285, 297 % of control; (dose: 12.5 mg/kg/injection, schedule: Q01DX009 (oral), vehicle: other) 137 and 148 % of control; (dose: 15.0 mg/kg/injection, schedule: Q01DX005 (iv), vehicle: other) 145 % of control. In addition, the T/C is 291, 313, 329, 338, 383, 386 % of control (dose: 15.0 mg/kg/injection, schedule: Q01DX009 (ip), vehicle: other, evaluated on day 45); 295, 297, 298, 299, 306, 339 % of control (dose: 15.0 mg/kg/injection, schedule: Q01DX009 (ip), vehicle: other, evaluated on day 60); 86, 91, 97, 104 % of control [5 of 6 alive] (dose: 20.0 mg/kg/injection, schedule: Q01DX009 (ip), vehicle: other, evaluated on day 30); 174 % of control (dose: 20.0 mg/kg/injection, schedule: Q01DX009 (ip), vehicle: other, evaluated on day 45); 112, 114, 117, 123 % of control (2×) (dose: 22.5 mg/kg/injection, schedule: Q01DX009 (ip), vehicle: other, evaluated on day 45); 98, 100, 107, 145 % of control (dose: 22.5 mg/kg/injection, schedule: Q01DX009 (ip), vehicle: other, evaluated on day 60). For the same compound, the T/C reads like this: under setting [1], 87, 101, 102, 127, 209 % of control; (dose: 33.0 mg/kg/injection, schedule: Q01DX009 (oral), vehicle: other) 136 % of control; (dose: 100.0 mg/kg/injection, schedule: Q01DX001 (sc), vehicle: other) 134 % of control. Further, the survivor count reads like this: (dose: 15.0 mg/kg/injection, schedule: Q01DX009 (ip), vehicle: other) 10 of 10; (dose: 20.0 mg/kg/injection, schedule: Q01DX009 (ip), vehicle: other) 6 of 6 (2×); (dose: 22.0 mg/kg/injection, schedule: Q01DX005 (iv), vehicle: other) 4 of 10; (dose: 22.0 mg/kg/injection, schedule: Q01DX009 (ip), vehicle: other) 10 of 10; (dose: 22.5 mg/kg/injection, schedule: Q01DX005 (iv), vehicle: clinical formulation) 10 of 10; (dose: 22.5 mg/kg/injection, schedule: Q01DX005 (iv), vehicle: other) 4 of 10. The survivor count by setting is: under setting [1], 3 of 6, 5 of 6, 6 of 6 (2×); (dose: 33.0 mg/kg/injection, schedule: Q01DX009 (ip), vehicle: other) 9 of 10; (dose: 40.0 mg/kg/injection, schedule: Q01DX005 (ip), vehicle: clinical formulation) 10 of 10; (dose: 40.0 mg/kg/injection, schedule: Q01DX005 (ip), vehicle: distilled water + Tween-80) 6 of 6; (dose: 40.0 mg/kg/injection, schedule: Q01DX005 (ip), vehicle: other) 9 of 10; (dose: 50.0 mg/kg/injection, schedule: Q01DX009 (ip), vehicle: other) 0 of 10 and 6 of 6. In addition, the survivor count reads like this: (dose: 50.0 mg/kg/injection, schedule: Q04DX003 (ip), vehicle: other) 8 of 8; (dose: 75.0 mg/kg/injection, schedule: Q01DX009 (ip), vehicle: other) 0 of 10; (dose: 75.0 mg/kg/injection, schedule: Q01DX009 (oral), vehicle: other) 10 of 10; (dose: 100.0 mg/kg/injection, schedule: Q01DX001 (ip), vehicle: other) 5 of 6; (dose: 200.0 mg/kg/injection, schedule: Q01DX001 (ip), vehicle: other) 1 of 6.

`CC(Br)C(=O)c1ccc(OCc2ccccc2)cc1` (centres undefined): the survivor count under setting [2] is 3 of 6.

Regarding `CCN(CC)CCNc1ncnc2c1cnn2C`, the survivor count by setting is: (dose: 100.0 mg/kg/injection, schedule: Q01DX005 (ip), vehicle: saline with Tween-80) 0 of 5; (dose: 200.0 mg/kg/injection, schedule: Q01DX005 (ip), vehicle: saline with Tween-80) 0 of 5.

As for `c1ccc2cc3c(cc2c1)Cn1c-3nc2ccccc21`, the survivor count (dose: 100.0 mg/kg/injection, schedule: Q04DX003 (ip), vehicle: saline with Tween-80) is given as 4 of 6.

Turning to `COC(=O)/C=C1\C[C@H]2C[C@]3(O)O[C@H](C[C@@H](O)CC(=O)O[C@@H]([C@@H](C)O)C[C@@H]4C/C(=C\C(=O)OC)[C@H](OC(C)=O)[C@@](O)(O4)C(C)(C)/C=C/[C@@H](C1)O2)C[C@H](OC(=O)CC(C)C)C3(C)C`, the T/C (dose: 10.0 micrograms/kg/injection, schedule: Q01DX009 (ip), vehicle: saline + alcohol) is 134 % of control.

For `CN1CCC(c2ccccc2)=C(Br)C1`, the survivor count (dose: 240.0 mg/kg/injection, schedule: Q01DX005 (ip), vehicle: saline) is 0 of 6.

Regarding `CCSCCC(N)C(=O)O` (centres undefined), the survivor count is, setting by setting: (dose: 100.0 mg/kg/injection, schedule: Q01DX009 (ip), vehicle: saline with Tween-80) 4 of 6; (dose: 200.0 mg/kg/injection, schedule: Q01DX009 (ip), vehicle: saline with Tween-80) 4 of 6; under setting [2], 4 of 6.
